From paper doi:10.1101/049148
No constants are given. Whether binding was seen depends on the method and setting. Binding calls can cover weak binding; strength is not graded here. For some assays here: Tags and fused reporters may be left off the sequences shown. For some assays here: Binding seen in cells or lysates may run through a third protein. Blank lines part the entries; values can stand above or below the binder they belong to.

How the values were obtained:
[1] = target: Chm7-VN (budding yeast (endogenously tagged)); assay: split reporter
[2] = target: GST-chm7-CΔC (budding yeast (W303 chromosomal DNA)); assay: pull-down

- binding [1]: no binding
B2: Vps20-VC (protein, UniProt Q04272 1-221)
chain: MGQKSSKVHITKTDRAILEVKRSKDEIHKFTRRTDNLILVEKSQLKDLIRKNPENYKSNMKVRFLLKRIHYQEHLLQQASDQLINLENMVSTLEFKMVEKQFINGLKNGNEILKKLNKEFSNVDELMDDVQDQIAYQNEINETLSRSLVGTSNYEDDLDKELDALESELNPEKMNNAKVANMPSTEGLPSLPQGEQTEQKEREEFATEERSDTKEPLALLS

- binding [2]: binds
B3: recombinant heh2(1-308)-His6 (domain or fragment, UniProt Q03281 1-308)
chain: MDHRNLDPKTLKVSQLRRVLVENDVAFPANARKPVLVKLFEEKVRQRLQSSPEASKVRTSIQKVVKSGAKNADRKKTLKSKKLESSSSESKTVKDENVETNKRKREQISTDNEAKMQIQEEKSPKKKRKKRSSKANKPPESPPQSKSDGKATSADLTSELETVEELHKKDSSDDKPRVKELPKPELPNLKVSNEFLAQLNKELASAATENYDHSIKSTDLSSIRIETEEPVGPSTGAETRNESEVMENINLEVQPEVKEAKEELTKISETFDNQDEEDTSRLSSKKNIRSPKGRTRHFIANKTKRGID

Continued, binder first:

B1: Snf7-VC (protein, UniProt P39929 1-240)
chain: MWSSLFGWTSSNAKNKESPTKAIVRLREHINLLSKKQSHLRTQITNQENEARIFLTKGNKVMAKNALKKKKTIEQLLSKVEGTMESMEQQLFSIESANLNLETMRAMQEGAKAMKTIHSGLDIDKVDETMDEIREQVELGDEISDAISRPLITGANEVDEDELDEELDMLAQENANQETSKIVNNNVNAAPISENKVSLPSVPSNKIKQSENSVKDGEEEEDEEDEDEKALRELQAEMGL
- binding [1]: binds

B4: Vps4-VC (enzyme, UniProt P52917 1-437)
chain: MSTGDFLTKGIELVQKAIDLDTATQYEEAYTAYYNGLDYLMLALKYEKNPKSKDLIRAKFTEYLNRAEQLKKHLESEEANAAKKSPSAGSGSNGGNKKISQEEGEDNGGEDNKKLRGALSSAILSEKPNVKWEDVAGLEGAKEALKEAVILPVKFPHLFKGNRKPTSGILLYGPPGTGKSYLAKAVATEANSTFFSVSSSDLVSKWMGESEKLVKQLFAMARENKPSIIFIDEVDALTGTRGEGESEASRRIKTELLVQMNGVGNDSQGVLVLGATNIPWQLDSAIRRRFERRIYIPLPDLAARTTMFEINVGDTPCVLTKEDYRTLGAMTEGYSGSDIAVVVKDALMQPIRKIQSATHFKDVSTEDDETRKLTPCSPGDDGAIEMSWTDIEADELKEPDLTIKDFLKAIKSTRPTVNEDDLLKQEQFTRDFGQEGN
- binding [1]: binds weakly

B5: Bro1-VC (protein, UniProt P48582 1-844)
chain: MKPYLFDLKLKDTEKLDWKKGLSSYLKKSYGSSQWRTFYDEKATSELDHLRNNANGELAPSSLSEQNLKYYSFLEHLYFRLGSKGSRLKMDFTWYDAEYSSAQKGLKYTQHTLAFEKSCTLFNIAVIFTQIARENINEDYKNSIANLTKAFSCFEYLSENFLNSPSVDLQSENTRFLANICHAEAQELFVLKLLNDQISSKQYTLISKLSRATCNLFQKCHDFMKEIDDDVAIYGEPKWKTTVTCKLHFYKSLSAYYHGLHLEEENRVGEAIAFLDFSMQQLISSLPFKTWLVEFIDFDGFKETLEKKQKELIKDNDFIYHESVPAVVQVDSIKALDAIKSPTWEKILEPYMQDVANKCDSLYRGIIPLDVYEKESIYSEEKATLLRKQVEETETANLEYSSFIEFTNLPRLLSDLEKQFSDGNIFSNTDTQGQLMRDQIQTWCKFIQTNEFRDIEEQMNKIVFKRKQILEILSALPNDQKENVTKLKSSLVAASNSDEKLFACVKPHIVEINLLNDNGKIWKKFDEFNRNTPPQPSLLDIDDTKNDKILELLKQVKGHAEDLRTLKEERSRNLSELRDEINNDDITKLLIINKGKSDVELKDLFEVELEKFEPLSTRIEATIYKQSSMIDDIKAKLDEIFHLSNFKDKSSGEEKFLEDRKNFFDKLQEAVKSFSIFASDLPKGIEFYDSLFNMSRDLAERVRVAKQTEDSTANSPAPPLPPLDSKASVVGGPPLLPQKSAAFQSLSRQGLNLGDQFQNLKISAGSDLPQGPGIPPRTYEASPYAATPTMAAPPVPPKQSQEDMYDLRRRKAVENEERELQENPTSFYNRPSVFDENMYSKYSS
- binding [1]: no binding
